# Measured values as given in the supplement of paper PMC10849652.
# Protein sequences, listed by entry. Tags and fused reporters are not part of them. Lines headed by an entry give the natural chain unless they say otherwise; changes in a name come on top.
# UniProt P50336: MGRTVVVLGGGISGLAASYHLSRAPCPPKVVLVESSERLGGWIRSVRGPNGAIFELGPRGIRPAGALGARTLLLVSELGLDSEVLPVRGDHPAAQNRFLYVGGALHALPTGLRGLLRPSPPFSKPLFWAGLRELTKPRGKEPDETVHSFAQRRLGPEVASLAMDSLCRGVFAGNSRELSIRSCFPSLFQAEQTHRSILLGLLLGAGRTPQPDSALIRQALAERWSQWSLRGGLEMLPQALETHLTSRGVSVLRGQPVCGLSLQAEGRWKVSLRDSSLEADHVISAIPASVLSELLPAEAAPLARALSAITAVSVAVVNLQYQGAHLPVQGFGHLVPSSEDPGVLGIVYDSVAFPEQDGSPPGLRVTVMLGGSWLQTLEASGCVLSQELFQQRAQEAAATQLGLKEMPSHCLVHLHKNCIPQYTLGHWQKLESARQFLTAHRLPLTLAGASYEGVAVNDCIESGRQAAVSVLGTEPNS
# UniProt Q13523: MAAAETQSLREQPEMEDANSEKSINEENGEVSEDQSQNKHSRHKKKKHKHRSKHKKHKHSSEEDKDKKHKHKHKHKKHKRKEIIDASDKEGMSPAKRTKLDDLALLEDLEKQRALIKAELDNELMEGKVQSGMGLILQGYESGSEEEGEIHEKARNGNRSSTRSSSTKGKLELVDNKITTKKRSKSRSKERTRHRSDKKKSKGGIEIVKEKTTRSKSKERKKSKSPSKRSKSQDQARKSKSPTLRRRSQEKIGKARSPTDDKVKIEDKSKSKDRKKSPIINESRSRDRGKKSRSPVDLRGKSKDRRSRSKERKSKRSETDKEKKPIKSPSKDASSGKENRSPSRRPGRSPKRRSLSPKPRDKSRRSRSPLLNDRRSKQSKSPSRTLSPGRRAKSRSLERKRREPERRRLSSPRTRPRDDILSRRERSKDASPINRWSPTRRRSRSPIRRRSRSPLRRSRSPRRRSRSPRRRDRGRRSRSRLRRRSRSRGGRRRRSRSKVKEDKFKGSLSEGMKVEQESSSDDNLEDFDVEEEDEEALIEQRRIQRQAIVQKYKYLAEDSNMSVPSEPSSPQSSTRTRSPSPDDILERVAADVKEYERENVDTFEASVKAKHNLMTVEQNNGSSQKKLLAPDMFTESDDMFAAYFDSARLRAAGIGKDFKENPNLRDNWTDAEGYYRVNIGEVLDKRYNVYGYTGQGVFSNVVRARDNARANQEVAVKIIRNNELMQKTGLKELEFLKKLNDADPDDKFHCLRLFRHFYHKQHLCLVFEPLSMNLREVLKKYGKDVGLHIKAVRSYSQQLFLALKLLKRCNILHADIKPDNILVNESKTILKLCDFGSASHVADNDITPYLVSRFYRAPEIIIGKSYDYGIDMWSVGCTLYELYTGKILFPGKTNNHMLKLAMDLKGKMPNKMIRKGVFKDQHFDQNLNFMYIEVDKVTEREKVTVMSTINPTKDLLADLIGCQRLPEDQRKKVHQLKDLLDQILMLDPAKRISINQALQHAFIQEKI
# UniProt O75807, whole entry, looked up: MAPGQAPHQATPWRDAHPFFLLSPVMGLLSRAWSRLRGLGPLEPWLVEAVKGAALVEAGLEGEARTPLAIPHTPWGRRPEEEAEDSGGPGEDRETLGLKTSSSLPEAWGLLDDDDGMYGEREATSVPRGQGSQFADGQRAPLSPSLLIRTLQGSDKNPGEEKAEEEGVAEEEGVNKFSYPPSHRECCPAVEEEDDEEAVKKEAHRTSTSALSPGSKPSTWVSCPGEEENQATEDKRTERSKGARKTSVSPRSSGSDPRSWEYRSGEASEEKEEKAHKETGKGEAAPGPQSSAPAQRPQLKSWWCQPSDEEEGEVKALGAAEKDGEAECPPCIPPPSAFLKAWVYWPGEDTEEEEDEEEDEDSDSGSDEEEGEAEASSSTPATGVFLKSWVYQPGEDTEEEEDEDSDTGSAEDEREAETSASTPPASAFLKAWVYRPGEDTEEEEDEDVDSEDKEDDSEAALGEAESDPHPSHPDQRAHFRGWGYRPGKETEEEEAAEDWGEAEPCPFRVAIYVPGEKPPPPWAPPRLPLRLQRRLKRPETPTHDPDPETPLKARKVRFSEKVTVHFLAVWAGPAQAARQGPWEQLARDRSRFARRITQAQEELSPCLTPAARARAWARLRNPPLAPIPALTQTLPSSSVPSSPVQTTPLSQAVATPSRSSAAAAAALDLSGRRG
# UniProt O60256: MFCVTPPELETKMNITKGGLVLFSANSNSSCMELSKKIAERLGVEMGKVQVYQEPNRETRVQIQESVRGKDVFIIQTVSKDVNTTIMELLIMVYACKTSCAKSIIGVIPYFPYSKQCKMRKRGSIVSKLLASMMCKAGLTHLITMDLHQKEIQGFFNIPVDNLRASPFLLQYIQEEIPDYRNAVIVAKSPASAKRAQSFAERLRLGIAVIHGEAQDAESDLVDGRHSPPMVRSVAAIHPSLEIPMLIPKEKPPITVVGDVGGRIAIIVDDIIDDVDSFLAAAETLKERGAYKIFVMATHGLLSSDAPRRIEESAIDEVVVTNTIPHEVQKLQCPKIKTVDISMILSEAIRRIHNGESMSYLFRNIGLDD
# UniProt P54619: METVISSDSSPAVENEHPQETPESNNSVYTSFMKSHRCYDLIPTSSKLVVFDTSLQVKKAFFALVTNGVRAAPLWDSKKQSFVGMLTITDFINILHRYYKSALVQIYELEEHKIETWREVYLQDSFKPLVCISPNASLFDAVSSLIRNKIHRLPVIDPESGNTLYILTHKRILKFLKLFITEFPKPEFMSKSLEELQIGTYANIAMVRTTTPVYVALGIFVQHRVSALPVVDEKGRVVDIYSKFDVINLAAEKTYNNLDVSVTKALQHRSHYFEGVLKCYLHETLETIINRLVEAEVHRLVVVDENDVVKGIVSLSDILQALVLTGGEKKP
# UniProt P13727: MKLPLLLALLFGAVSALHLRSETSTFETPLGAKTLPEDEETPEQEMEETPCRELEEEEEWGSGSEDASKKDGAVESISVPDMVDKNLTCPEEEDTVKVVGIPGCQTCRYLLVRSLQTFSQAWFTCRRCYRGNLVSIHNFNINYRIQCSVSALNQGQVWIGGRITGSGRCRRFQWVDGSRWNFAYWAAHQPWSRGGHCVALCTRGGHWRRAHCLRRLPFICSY
# UniProt P41219, whole entry, looked up: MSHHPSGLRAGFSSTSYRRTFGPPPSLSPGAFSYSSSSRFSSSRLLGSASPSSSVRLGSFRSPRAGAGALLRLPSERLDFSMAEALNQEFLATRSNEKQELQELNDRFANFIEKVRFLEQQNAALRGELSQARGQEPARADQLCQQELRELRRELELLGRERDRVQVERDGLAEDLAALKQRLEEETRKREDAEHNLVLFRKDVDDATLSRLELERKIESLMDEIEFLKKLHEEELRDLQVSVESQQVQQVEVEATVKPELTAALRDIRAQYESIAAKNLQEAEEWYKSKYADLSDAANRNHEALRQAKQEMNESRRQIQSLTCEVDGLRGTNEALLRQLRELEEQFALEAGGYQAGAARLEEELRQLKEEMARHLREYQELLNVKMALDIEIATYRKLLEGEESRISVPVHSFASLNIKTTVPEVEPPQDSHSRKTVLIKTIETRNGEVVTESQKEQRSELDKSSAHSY
# UniProt Q13362, whole entry, looked up: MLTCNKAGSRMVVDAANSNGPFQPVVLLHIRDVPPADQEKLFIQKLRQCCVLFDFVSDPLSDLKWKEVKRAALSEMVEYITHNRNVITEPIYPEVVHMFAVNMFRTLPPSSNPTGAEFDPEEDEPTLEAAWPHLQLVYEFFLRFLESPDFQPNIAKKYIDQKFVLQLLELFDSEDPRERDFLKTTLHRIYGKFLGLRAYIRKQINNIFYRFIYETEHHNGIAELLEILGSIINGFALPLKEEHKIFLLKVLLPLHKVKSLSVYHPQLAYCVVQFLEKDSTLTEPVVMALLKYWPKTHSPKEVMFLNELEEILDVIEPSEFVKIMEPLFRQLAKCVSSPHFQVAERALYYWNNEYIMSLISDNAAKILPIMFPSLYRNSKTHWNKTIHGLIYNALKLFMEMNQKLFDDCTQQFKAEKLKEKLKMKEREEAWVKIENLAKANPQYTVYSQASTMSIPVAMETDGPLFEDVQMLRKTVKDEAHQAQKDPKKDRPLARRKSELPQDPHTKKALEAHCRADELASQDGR
# UniProt P62136, whole entry, looked up: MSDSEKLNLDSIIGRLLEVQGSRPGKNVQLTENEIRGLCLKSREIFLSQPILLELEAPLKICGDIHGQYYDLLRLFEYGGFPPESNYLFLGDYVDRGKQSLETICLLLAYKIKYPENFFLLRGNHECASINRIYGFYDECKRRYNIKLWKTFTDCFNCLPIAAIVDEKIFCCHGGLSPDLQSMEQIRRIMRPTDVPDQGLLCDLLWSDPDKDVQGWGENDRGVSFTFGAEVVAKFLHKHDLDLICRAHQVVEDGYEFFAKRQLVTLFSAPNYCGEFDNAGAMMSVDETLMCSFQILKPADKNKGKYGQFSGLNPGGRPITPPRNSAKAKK
# UniProt Q9UNN8: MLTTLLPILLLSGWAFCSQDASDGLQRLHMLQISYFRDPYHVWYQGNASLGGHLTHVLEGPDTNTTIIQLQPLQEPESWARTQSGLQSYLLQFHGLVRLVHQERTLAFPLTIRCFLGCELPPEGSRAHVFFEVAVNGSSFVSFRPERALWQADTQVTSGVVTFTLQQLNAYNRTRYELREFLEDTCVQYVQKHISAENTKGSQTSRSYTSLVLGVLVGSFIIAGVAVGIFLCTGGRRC
# The list shows a part of the results. Residues, ends and D or L forms follow the SMILES beside them. *: point of attachment. Cbz = O=C(OCc1ccccc1)*
# Legend:
# Assay in all cases: log2 fold change, soluble protein after heating vs DMSO (PISA); higher = thermal stabilisation; K562 cells, 10 uM, 30 min; active = over 0.2 and 3.5 SD of the protein, either way, in both replicates (recomputed)
# erlotinib = compound: C#Cc1cccc(Nc2ncnc3cc(OCCOC)c(OCCOC)cc23)c1 [erlotinib]
# Method in brief: (§1)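 Aliquots of K562 cells (2×10^6 cells/mL) treated with 10 μM compound for 30 min were heated for 3 min over 48°C-58°C. After pooling and extraction in PBS with 0.5% NP-40 at 4°C, soluble protein from a 21,000xg, 90 min spin was quantified by TMTpro 16plex LC-MS/MS with channel sums equalised. Thermal stability is expressed against control samples, from duplicates, as a log2 fold change.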
# [1] = compound: C/C(=N\NC(=O)C1=CC(=CC=C1)S(=O)(=O)N2CCOCC2)/C3=C(C=CC(=C3)Cl)O
# Method in brief: as §1
# [2] = compound: C1=CC(=C(C=C1Cl)C2=NC3=NC=CN=C3C(=N2)NC4=CC=NC=C4)F
# Method in brief: as §1
# [3] = compound: C1=CC(=CC=C1C2=NC3=C(N2)C=C(C=C3)C(=O)N)OC4=CC=C(C=C4)Cl
# Method in brief: as §1
# [4] = compound: C1=CC2=C(C=CC(=C2)/C=C\3/C(=O)NC(=NCC4=CC=CS4)S3)N=C1
# Method in brief: as §1
# [5] = compound: C1=CC2=NC=CN=C2C=C1/C=C/3\C(=O)NC(=O)S3
# Method in brief: as §1
# [6] = compound: C1=CC=C(C=C1)C2=NC(=C(N2)C3=CC=NC=C3)C4=CC(=C(C=C4)Cl)O
# Method in brief: as §1
# [7] = compound: C1=CC=C2C(=C1)C3=NNC4=CC=CC(=C43)C2=O
# Method in brief: as §1
# [8] = compound: C1CCN(C1)C(=O)NC2=CC=CC(=C2)NC3=NC=C(C(=N3)NCCC4=CN=CN4)Br
# Method in brief: as §1
# [9] = compound: C1CN(CCC1(CC2=CC=C(C=C2)Cl)N)C3=NC=NC4=C3C=CN4
# Method in brief: as §1
# IRAK-1-4 Inhibitor I = compound: C1COCCN1CCN2C3=CC=CC=C3N=C2NC(=O)C4=CC(=CC=C4)[N+](=O)[O-] [IRAK-1-4 Inhibitor I]
# Method in brief: as §1
# ibrutinib = compound: C=CC(=O)N1CCC[C@@H](n2nc(-c3ccc(Oc4ccccc4)cc3)c3c(N)ncnc32)C1 [ibrutinib]
# Method in brief: as §1
# [10] = compound: CC(=O)c1cnc2ccc(-c3cc(Cl)c(O)c(Cl)c3)nc2c1N[C@H]1CC[C@H](CN(C)C)CC1
# Method in brief: as §1
# ralimetinib = compound: CC(C)(C)Cn1c(N)nc2ccc(-c3[nH]c(C(C)(C)C)nc3-c3ccc(F)cc3)nc21 [ralimetinib]
# Method in brief: as §1
# [11] = compound: CC(C)(O)CC(=O)NCCn1ccc2ncnc(Nc3ccc(Oc4cccc(C(F)(F)F)c4)c(Cl)c3)c21
# Method in brief: as §1
# [12] = compound: CC(C)C1=C2N=C(C=C(N2N=C1)NCC3=CC=CC=C3)NCCCCCCN
# Method in brief: as §1
# [13] = compound: CC(C)C[C@@H](C=O)NC(=O)[C@H](CC(C)C)NC(=O)[C@H](CC(C)C)NC(=O)OCc1ccccc1
# Method in brief: as §1
# pinometostat = compound: CC(C)N(C[C@H]1O[C@@H](n2cnc3c(N)ncnc32)[C@H](O)[C@@H]1O)[C@H]1C[C@@H](CCc2nc3cc(C(C)(C)C)ccc3[nH]2)C1 [pinometostat]
# Method in brief: as §1
# [14] = compound: CC1=C(C2=C(C=C1)C(=O)C3=CC=CC=C3N2CCCN)C
# Method in brief: as §1
# [15] = compound: CC1=C(C(CC(=O)N1)C2=CC=C(C=C2)C(F)(F)F)C(=O)NC3=C(C=C4C(=C3)C=NN4)F
# Method in brief: as §1
Target,log2 fold change (erlotinib),log2 fold change [1],log2 fold change [2],log2 fold change [3],log2 fold change [4],log2 fold change [5],log2 fold change [6],log2 fold change [7],log2 fold change [8],log2 fold change [9],log2 fold change (IRAK-1-4 Inhibitor I),log2 fold change (ibrutinib),log2 fold change [10],log2 fold change (ralimetinib),log2 fold change [11],log2 fold change [12],log2 fold change [13],log2 fold change (pinometostat),log2 fold change [14],log2 fold change [15]
PPOX (UniProt P50336),inactive: 0.112,inactive: 0.415,inactive: 0.156,inactive: 0.416,inactive: 0.039,inactive: -0.004,inactive: 0.095,inactive: 0.013,inactive: 0.051,inactive: -0.011,inactive: 0.095,inactive: 0.136,inactive: -0.151,inactive: 0.077,inactive: 0.187,inactive: -0.217,inactive: -0.008,inactive: -0.039,inactive: -0.009,–
PRPF4B (UniProt Q13523),inactive: 0.002,inactive: 0.044,inactive: -0.213,inactive: 0.074,inactive: -0.046,inactive: -0.064,inactive: -0.14,inactive: -0.12,inactive: -0.103,inactive: -0.113,inactive: -0.126,inactive: -0.015,inactive: -0.263,inactive: -0.001,inactive: 0.138,inactive: -0.029,inactive: 0.077,inactive: 0.099,inactive: -0.209,–
PPP1R15A (UniProt O75807),inactive: -0.018,–,inactive: 0.042,inactive: -0.112,–,–,–,–,–,–,inactive: 0.092,–,–,–,inactive: 0.129,inactive: 0.287,–,inactive: -0.033,–,–
PRPSAP2 (UniProt O60256),inactive: 0.053,inactive: 0.033,inactive: -0.017,inactive: -0.028,inactive: -0.06,inactive: 0.017,inactive: -0.006,inactive: 0.029,inactive: -0.02,inactive: 0.009,inactive: 0.02,inactive: 0.008,inactive: 0.074,inactive: -0.013,inactive: 0.003,inactive: 0.035,inactive: -0.017,inactive: -0.003,inactive: 0.063,–
PRKAG1 isoform 3 (UniProt P54619),inactive: 0.025,inactive: 0.038,inactive: -0.016,inactive: -0.012,inactive: 0.083,inactive: 0.032,inactive: 0.037,inactive: -0.015,inactive: -0.007,inactive: 0.045,inactive: 0.042,inactive: -0.019,active: -0.266,inactive: 0.001,inactive: -0.011,inactive: -0.067,inactive: -0.025,inactive: 0.015,inactive: 0.013,–
PRG2 (UniProt P13727),inactive: 0.012,–,inactive: 0.062,inactive: 0.006,–,–,–,–,inactive: 0.115,inactive: -0.174,inactive: -0.01,–,–,–,inactive: 0.078,inactive: 0.137,–,inactive: 0.248,inactive: -0.333,–
PRPH isoform 2 (UniProt P41219),inactive: 0.046,inactive: -0.181,–,inactive: 0.034,inactive: -0.234,inactive: 0.097,inactive: -0.231,inactive: -0.1,inactive: 0.122,inactive: -0.105,inactive: -0.122,inactive: 0.171,inactive: 0.144,inactive: 0.226,–,inactive: -0.081,inactive: 0.006,inactive: 0.097,inactive: -0.287,inactive: 0.056
PPP2R5C isoform 4 (UniProt Q13362),inactive: 0.036,inactive: -0.022,inactive: 0.218,inactive: -0.025,inactive: -0.039,inactive: -0.004,inactive: -0.029,inactive: -0.015,inactive: 0,inactive: 0.019,inactive: 0.027,inactive: -0.051,inactive: 0.019,inactive: -0.15,inactive: -0.07,inactive: -0.02,inactive: 0.034,inactive: 0.043,inactive: -0.032,–
PPP1CA (UniProt P62136),inactive: 0.026,inactive: -0.002,inactive: -0.015,inactive: -0.006,inactive: 0.036,inactive: -0.005,inactive: 0.001,inactive: -0.03,inactive: -0.004,inactive: 0.009,inactive: 0.041,inactive: -0.02,inactive: -0.018,inactive: -0.012,inactive: 0.007,inactive: 0.015,inactive: 0.009,inactive: -0.071,inactive: -0.007,–
PROCR (UniProt Q9UNN8),inactive: -0.036,inactive: 0.033,inactive: 0.082,inactive: 0.025,inactive: -0.04,inactive: 0.001,–,inactive: -0.436,inactive: -0.041,inactive: 0.072,inactive: 0.014,inactive: -0.011,inactive: 0.151,–,inactive: -0.115,inactive: -0.003,–,inactive: -0.143,inactive: 0.113,inactive: -0.029
